From paper PMC5206633
No constants are given. Whether binding was seen depends on the method and setting. Binding seen in cells or lysates may run through a third protein. Some results given as binding are weak or reduced against the parent protein; the word gives no strength.

Sequences of proteins named here, by UniProt entry; tags and fusion partners are left off. A change or cut given only in a name is not applied to a line headed by its entry.
UniProt P06748, whole entry: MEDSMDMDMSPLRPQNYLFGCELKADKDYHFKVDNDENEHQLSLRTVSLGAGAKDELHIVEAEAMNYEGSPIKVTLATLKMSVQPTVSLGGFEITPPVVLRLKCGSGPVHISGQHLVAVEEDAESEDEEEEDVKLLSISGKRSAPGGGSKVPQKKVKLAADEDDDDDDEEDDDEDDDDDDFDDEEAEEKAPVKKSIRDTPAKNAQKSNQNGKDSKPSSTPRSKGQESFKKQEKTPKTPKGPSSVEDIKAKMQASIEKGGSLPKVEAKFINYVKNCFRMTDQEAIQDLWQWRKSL

How the values were obtained:
[1] = biological target: GST-NPM1 fusion protein (full length, 1–294) (not stated (the discussion speaks of 'NPM1 of Vero E6 cells')) (UniProt P06748); assay: pull-down; GST or GST-NPM1 on glutathione beads incubated with full-length and deletion mutants of GFP-tagged N protein; immunoblot against GFP; the source of the GFP proteins is not told (the methods tell of lysate of transfected HEK293T cells for Myc-N); only the target purified
[2] = biological target: GST-NPM1 fusion protein (full length, 1–294) (not stated (the discussion speaks of 'NPM1 of Vero E6 cells')) (UniProt P06748); assay: pull-down; GST, GST-NPM1 or GST-NPM1 deletion mutants from E. coli on glutathione beads, blocked with 5% BSA; incubated 6 h at 4 °C in TIF buffer (20 mM Tris-HCl pH 8.0, 150 mM NaCl, 0.1% NP-40) with Myc-N from lysates of transfected HEK293T cells; immunoblot with anti-Myc; only the target purified
[3] = biological target: 3×Flag-NPM1 (K263R) (not stated (the discussion speaks of 'NPM1 of Vero E6 cells')) (UniProt P06748); assay: co-IP; HEK293T cells co-transfected, whole-cell lysates at 48 hpt in IP lysis buffer; immunoprecipitated with anti-Myc or anti-Flag mAb on protein A/G beads for 6–8 h; immunoblot
[4] = biological target: 3×Flag-NPM1 (K230R) (not stated (the discussion speaks of 'NPM1 of Vero E6 cells')) (UniProt P06748); assay: as above
[5] = biological target: 3×Flag-NPM1 (nucleophosmin) (not stated (the discussion speaks of 'NPM1 of Vero E6 cells')) (UniProt P06748); assay: as above
[6] = biological target: 3×Flag-NPM1 (T199A) (not stated (the discussion speaks of 'NPM1 of Vero E6 cells')) (UniProt P06748); assay: as above

| Substance | binding [1] | binding [2] | binding [3] | binding [4] | binding [5] | binding [6] |
| --- | --- | --- | --- | --- | --- | --- |
| GFP-NR2 (aa 148–294 of PEDV N) (from UniProt Q07499 148-294) (domain or fragment) | binds |  |  |  |  |  |
| GFP-tagged full-length PEDV N protein (from UniProt Q07499 1-441) | binds |  |  |  |  |  |
| Myc-tagged PEDV nucleocapsid (N) protein (from UniProt Q07499 1-441) |  | binds | binds | binds | binds | binds |
